The values that follow come from publication doi:10.1101/2023.07.10.547766.

Experiment [1] concerns the target T1, ShcD-CH2 domain (amino acid 1-179) fused to LexA DNA binding domain (human) (UniProt Q6S5L8).
T1 sequence: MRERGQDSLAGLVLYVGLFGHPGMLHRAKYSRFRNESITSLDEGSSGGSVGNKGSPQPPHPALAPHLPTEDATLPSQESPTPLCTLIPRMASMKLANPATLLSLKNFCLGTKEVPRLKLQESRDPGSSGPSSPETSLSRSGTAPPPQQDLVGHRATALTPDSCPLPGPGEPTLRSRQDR
The experiment can be described thus: two-hybrid.

The target of experiment [2] is T1, ShcD-CH2 domain (amino acid 1-179) fused to LexA DNA binding domain (human). The experiment can be described thus: two-hybrid. This is another data set of the same source.

Like-named read-outs stand apart in the source and are kept apart here. These are yes or no findings as the source states them, for the method shown. Some results given as binding are weak or reduced against the parent protein; the word gives no strength. Tags and fused reporters may be left off the sequences shown.

B1: Nisch 2 (coiled-coil domain of Nischarin encoded by 6.1C, 620-666) (domain or fragment, UniProt Q80TM9 620-666)
chain: LPAWIEAANQREEAHGEQGEEEEEEEEEEDVAENRYFEMGPPDAEEE
Take B1: the binding entry in experiment [1] was “no binding”.

B2: Nischarin clone 6.1C (amino acids 541-666) (domain or fragment, UniProt Q80TM9 541-666)
chain: ACSDSLESIPAGQVASDDLRDVPGAVGGVSPDHAEPEVQVVPGSGQIIFLPFTCIGYTATNQDFIQRLSTLIRQAIERQLPAWIEAANQREEAHGEQGEEEEEEEEEEDVAENRYFEMGPPDAEEE
Take B2: the binding result in experiment [1] and in experiment [2] was “binds” each time.

B3: Nischarin clone 66.1C (amino acids 559-741) (domain or fragment, UniProt Q80TM9 559-741)
chain: LRDVPGAVGGVSPDHAEPEVQVVPGSGQIIFLPFTCIGYTATNQDFIQRLSTLIRQAIERQLPAWIEAANQREEAHGEQGEEEEEEEEEEDVAENRYFEMGPPDAEEEEGSGQGEEDEEDEDEEAEEERLALEWALGADEDFLLEHIRILKVLWCFLIHVQGSIRQFAACLVLTDFGIAVFEI
B3: the binding result in experiment [1] and in experiment [2] was “binds” in each case.

B4: Nisch 1 (complete coiled-coil domain of Nischarin, amino acids 620-694) (domain or fragment, UniProt Q80TM9 620-694)
chain: LPAWIEAANQREEAHGEQGEEEEEEEEEEDVAENRYFEMGPPDAEEEEGSGQGEEDEEDEDEEAEEERLALEWAL
Consider B4, for which, in experiment [1], the binding entry was “no binding”.
